Chains of the proteins cited; added tags and fusions are not shown. Lines headed by an entry give the natural chain unless they say otherwise; changes in a name come on top.
UniProt Q9V3Z6: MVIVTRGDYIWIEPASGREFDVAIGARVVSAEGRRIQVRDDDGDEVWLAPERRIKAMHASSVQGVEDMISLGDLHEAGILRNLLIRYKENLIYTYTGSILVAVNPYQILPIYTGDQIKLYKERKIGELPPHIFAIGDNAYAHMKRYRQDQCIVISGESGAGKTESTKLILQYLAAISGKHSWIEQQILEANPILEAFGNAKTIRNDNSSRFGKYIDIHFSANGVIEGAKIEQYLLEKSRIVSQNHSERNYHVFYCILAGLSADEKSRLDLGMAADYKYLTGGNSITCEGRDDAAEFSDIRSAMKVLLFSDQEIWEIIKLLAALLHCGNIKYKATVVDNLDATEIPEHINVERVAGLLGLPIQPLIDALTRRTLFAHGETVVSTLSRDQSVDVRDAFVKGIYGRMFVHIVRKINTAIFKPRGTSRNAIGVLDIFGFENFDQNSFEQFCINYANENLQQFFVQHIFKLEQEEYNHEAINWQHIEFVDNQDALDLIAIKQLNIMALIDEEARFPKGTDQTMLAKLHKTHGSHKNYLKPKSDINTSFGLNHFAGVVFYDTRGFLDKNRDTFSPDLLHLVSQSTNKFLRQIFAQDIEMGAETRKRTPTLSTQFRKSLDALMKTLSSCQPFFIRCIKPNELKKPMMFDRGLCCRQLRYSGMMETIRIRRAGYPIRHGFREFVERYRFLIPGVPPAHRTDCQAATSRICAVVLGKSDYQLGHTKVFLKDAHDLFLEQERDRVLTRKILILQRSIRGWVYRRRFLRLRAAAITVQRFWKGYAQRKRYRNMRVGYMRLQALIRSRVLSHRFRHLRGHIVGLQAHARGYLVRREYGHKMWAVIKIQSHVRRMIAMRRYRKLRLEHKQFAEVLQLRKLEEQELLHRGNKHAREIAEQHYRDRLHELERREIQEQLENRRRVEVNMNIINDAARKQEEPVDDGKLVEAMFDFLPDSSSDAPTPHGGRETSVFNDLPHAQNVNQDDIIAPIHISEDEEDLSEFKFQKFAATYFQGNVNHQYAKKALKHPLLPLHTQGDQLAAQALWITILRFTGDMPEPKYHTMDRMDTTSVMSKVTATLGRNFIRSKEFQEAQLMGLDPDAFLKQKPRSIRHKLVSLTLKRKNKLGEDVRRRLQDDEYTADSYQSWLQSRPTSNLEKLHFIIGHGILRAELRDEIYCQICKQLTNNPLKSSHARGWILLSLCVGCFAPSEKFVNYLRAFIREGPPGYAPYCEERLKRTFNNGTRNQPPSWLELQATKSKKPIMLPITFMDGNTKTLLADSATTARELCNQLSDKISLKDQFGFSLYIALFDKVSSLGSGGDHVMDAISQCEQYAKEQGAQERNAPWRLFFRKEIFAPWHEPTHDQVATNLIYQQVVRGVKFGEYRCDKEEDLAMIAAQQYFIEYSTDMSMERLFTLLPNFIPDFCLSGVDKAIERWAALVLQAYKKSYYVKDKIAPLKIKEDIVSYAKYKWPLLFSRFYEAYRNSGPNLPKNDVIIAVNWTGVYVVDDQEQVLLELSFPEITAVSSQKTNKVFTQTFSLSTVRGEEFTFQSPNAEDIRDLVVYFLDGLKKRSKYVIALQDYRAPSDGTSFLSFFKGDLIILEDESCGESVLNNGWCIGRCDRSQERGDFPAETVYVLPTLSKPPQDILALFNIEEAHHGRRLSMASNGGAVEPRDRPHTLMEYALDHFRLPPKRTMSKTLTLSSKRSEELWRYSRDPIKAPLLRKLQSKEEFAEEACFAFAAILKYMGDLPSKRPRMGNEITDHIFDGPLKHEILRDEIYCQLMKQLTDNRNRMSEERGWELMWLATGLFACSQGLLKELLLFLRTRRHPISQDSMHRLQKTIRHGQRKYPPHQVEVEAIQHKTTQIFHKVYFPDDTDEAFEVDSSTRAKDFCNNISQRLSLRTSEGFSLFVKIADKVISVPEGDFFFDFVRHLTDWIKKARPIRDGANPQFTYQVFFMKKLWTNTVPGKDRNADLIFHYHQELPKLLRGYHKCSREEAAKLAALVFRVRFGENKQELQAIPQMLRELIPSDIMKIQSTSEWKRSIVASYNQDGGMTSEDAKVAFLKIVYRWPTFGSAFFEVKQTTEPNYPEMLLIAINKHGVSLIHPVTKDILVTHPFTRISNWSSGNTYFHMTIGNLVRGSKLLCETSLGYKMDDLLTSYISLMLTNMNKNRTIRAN
UniProt Q24311: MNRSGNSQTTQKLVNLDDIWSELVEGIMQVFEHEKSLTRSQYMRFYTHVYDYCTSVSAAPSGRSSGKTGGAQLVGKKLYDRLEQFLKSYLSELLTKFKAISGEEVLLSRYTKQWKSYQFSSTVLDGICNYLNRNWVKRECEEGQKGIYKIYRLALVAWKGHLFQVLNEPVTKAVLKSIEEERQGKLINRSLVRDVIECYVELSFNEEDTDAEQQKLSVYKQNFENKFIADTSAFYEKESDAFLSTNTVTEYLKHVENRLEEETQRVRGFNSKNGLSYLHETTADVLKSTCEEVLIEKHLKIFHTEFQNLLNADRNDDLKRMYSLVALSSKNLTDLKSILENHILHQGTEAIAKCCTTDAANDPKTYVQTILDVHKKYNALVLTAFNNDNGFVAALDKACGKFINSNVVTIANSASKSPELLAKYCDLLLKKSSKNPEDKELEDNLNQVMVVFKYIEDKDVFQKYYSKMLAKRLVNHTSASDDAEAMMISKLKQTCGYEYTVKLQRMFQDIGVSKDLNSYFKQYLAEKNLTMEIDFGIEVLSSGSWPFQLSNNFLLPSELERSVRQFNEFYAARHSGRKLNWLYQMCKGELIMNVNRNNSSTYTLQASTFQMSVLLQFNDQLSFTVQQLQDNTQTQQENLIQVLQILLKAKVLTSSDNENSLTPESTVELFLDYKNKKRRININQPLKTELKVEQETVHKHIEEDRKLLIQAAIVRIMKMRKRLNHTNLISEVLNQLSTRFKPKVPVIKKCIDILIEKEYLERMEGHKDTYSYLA
UniProt Q7JQL2: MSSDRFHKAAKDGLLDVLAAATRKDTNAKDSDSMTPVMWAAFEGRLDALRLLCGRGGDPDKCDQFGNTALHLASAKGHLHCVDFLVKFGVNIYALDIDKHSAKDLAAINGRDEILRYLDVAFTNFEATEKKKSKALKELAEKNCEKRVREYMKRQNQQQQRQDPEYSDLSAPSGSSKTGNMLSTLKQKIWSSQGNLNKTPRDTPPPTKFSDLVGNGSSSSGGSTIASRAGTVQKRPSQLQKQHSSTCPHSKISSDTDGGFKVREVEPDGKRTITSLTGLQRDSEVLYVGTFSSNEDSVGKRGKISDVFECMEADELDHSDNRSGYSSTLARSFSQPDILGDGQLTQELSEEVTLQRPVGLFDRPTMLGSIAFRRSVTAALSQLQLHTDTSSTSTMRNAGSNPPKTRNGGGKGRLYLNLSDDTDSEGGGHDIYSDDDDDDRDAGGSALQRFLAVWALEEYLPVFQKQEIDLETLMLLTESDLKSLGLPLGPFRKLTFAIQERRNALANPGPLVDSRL

In publication PMC4978524:

What was measured:
[1] = molecular target: MyoVIIa-GFP (Drosophila Myosin VIIa, in S2 cells) (Drosophila) (UniProt Q9V3Z6); test: co-IP; S2 cells transfected with GFP-tagged and V5-tagged constructs, lysed 48 hr after transfection (Tris-HCl 25 mM pH 7.5, NaCl 150 mM, NP-40 1%), precipitated with GFP nanobody conjugated beads overnight at 4°C, western blots
[2] = molecular target: Cul1-GFP (Drosophila Cullin1, in S2 cells) (Drosophila) (UniProt Q24311); test: as above

binding [1]: binds
binding [2]: binds
Substance: Sans-V5 (Drosophila homologue of the Usher syndrome protein Sans) (from UniProt Q7JQL2)

No constants are given. Whether binding was seen depends on the method and setting. In cells and extracts the contact can be indirect. Binding calls can cover weak binding; strength is not graded here.
